Measurements reported in PMC8657912, “Substrate-Dependent Trans-Stimulation of Organic Cation Transporter 2 Activity” (International Journal of Molecular Sciences, 2021).

Legend:
human OCT2 [1] = molecular target: T1, human OCT2 (Homo sapiens, UniProt O15244); experiment: Cis-inhibition of OCT2-mediated DiASP uptake in HEK-OCT2 cells
T1 sequence (O15244 1-555): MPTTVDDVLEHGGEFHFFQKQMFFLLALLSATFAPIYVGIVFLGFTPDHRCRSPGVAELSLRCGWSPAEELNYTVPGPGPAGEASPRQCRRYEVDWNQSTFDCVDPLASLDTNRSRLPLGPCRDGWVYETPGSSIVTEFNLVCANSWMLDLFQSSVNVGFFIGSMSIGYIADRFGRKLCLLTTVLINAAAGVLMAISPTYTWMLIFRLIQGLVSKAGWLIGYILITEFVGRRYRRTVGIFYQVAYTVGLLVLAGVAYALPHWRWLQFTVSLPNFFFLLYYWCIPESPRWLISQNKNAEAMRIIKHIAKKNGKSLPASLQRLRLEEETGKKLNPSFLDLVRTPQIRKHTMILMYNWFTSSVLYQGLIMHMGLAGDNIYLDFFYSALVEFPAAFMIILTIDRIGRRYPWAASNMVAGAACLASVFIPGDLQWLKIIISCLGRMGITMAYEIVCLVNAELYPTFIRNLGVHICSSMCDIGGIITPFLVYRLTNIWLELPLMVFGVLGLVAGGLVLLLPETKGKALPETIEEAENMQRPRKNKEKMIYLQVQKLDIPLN
Method: (§1) They were cultured in Dulbecco’s modified Eagle medium (DMEM) (Life Technologies, Carlsbad, CA, USA), supplemented with 10% (vol/vol) fetal calf serum, 10 IU/mL penicillin, 10 μg/mL streptomycin, 1% non-essential amino acids, and 1 μg/mL insulin, as already reported.
Cis-inhibition of OCT2 activity was analysed as previously described. Briefly, HEK-OCT2 cells were incubated with 10 µM DiASP, in the absence (control) of the presence of 100 µM amitriptyline (used here as a reference inhibitor of OCT2 activity) or of various concentrations of the OCT2 substrates, for 5 min. The transport assay medium consisted of 5.3 mM KCl, 1.1 mM KH2PO4, 0.8 mM MgSO4, 1.8 mM CaCl2, 11 mM dextrose, 10 mM HEPES, and 136 mM NaCl, adjusted to pH = 7.4. Next, cells were washed with phosphate-buffered saline (PBS) and lysed in distilled water. Intracellular accumulation of DiASP was then determined by spectrofluorimetry using a PerkinElmer Enspire spectrofluorometer (Waltham, MA, USA); excitation and emission wavelengths were 485 nm and 607 nm, respectively. DiASP accumulation values were thereafter normalized to total protein content, determined by the Bradford method.
IC50 values of OCT2 substrates towards OCT2-mediated uptake of DiASP and the corresponding 95% confidence intervals were determined from nonlinear regression of concentration-response data, based on the four-parameter logistic function. […]

human OCT2 [2] = molecular target: T1, human OCT2; experiment: Uptake trans-stimulation assay of OCT2-mediated DiASP uptake in HEK-OCT2 cells; format: cell-based; parameters: host or cells: HEK293 (HEK-OCT2); conditions: HEK-OCT2 cells preloaded 30 min 37 °C, washed, then 10 µM DiASP 5 min
Method: Uptake trans-stimulation assays were performed as schematically depicted in Figure 4.
Figure 4 Schematic representation of the various steps of the trans-stimulation assay performed for investigating OCT2 substrates (created with biorender.com). Step 1 corresponds to the initial incubation of cells without (Control) or with candidate substrate for 30 min at 37 °C. Step 2 consists of the incubation of cells with the reference tracer substrate (DiASP) for 5 min at 37 °C. Step 3 is the measurement of cellular accumulation of DiASP through spectrofluorimetry.
as §1
OCT2 trans-stimulation assays were performed through monitoring cellular uptake of the tracer substrate DiASP. As schematically depicted in Figure 4, HEK-OCT2 cells were first incubated in the absence (control) or presence of different concentrations of OCT2 substrates for 30 min at 37 °C in the transport assay medium described above. […] Cellular accumulation of the fluorescence dye was next determined by spectrofluorimetry, as reported above. Data were commonly expressed as % of DiASP uptake in control cells, set at 100%, or as fluorescence arbitrary units (FAU)/mg protein.

Compound: CC(C)[N+]1(C)[C@@H]2CC[C@H]1C[C@@H](OC(=O)C(CO)c1ccccc1)C2 (some centres unmarked) [Ipratropium, ipratropium]
- IC50 (human OCT2 [1]): 240 nM
- Lowest trans-inhibiting concentration towards DiASP uptake (human OCT2 [2]): 1 µM
